The full ranking holds about 33,000 sequences; the median of “E-score (-0.5 to 0.5)” is about -0.015, and the highest 2% start at about 0.3. Some of the results follow.
The sequences below were run against T1, Abf1 (UniProt P14164) (assay: PBM E-score (8-mer binding enrichment) (E-score (-0.5 to 0.5)); higher = stronger / more preferred TF binding). Conditions: protein concentration: 200 nM; construct: GST-full length.
T1 sequence: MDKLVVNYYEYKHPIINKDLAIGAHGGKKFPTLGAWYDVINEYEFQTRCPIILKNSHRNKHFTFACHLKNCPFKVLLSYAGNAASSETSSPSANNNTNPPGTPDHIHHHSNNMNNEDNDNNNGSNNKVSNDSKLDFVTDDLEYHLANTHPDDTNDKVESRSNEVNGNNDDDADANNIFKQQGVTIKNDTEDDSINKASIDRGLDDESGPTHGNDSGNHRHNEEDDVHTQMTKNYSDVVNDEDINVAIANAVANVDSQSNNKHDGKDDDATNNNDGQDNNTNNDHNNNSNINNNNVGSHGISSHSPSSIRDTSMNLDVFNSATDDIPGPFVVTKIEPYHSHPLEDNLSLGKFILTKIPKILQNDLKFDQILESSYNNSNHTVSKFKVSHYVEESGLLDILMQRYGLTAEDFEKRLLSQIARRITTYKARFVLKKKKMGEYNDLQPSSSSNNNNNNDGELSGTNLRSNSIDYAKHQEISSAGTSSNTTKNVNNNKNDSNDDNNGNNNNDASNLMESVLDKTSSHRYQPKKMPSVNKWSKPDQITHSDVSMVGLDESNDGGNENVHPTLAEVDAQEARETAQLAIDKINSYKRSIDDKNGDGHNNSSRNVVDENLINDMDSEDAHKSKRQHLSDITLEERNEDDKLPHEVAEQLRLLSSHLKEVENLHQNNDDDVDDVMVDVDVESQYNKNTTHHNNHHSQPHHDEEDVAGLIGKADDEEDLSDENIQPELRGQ
Outline: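 Universal all-10-mer Agilent arrays, fresh or stripped once, were converted to double-stranded form by primer extension. GST-tagged yeast transcription factors from PURExpress in vitro transcription/translation, full-length or DNA-binding domain only, were applied at about 100-200 nM and detected with fluorescent anti-GST. After masliner normalisation, the Universal PBM Analysis Suite scored each ungapped eight-base word together with its reverse complement by E-score.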
CCTGGTAC was tested, and the “PBM E-score” value was 0.0283.
GTAATGTA was tested, and the “PBM E-score” value was 0.0392.
CCAACAAG was tested, and the “PBM E-score” value was -0.188.
With ATCGTTAA the “PBM E-score” value was 0.289.
CTATTTTA was tested, and the “PBM E-score” value was 0.167.
In the case of AGGGTTCA, the “PBM E-score” value was 0.0558.
In the case of GTTACACA, the “PBM E-score” value was 0.152.
CGTTACAG was tested, and the “PBM E-score” value was -0.0224.
For CAGAGGGG, the “PBM E-score” value was -0.267.
CTCTATTA was tested, and the “PBM E-score” value was -0.101.
ATAATAGG was tested, and the “PBM E-score” value was -0.00223.
With ATCATGTC the “PBM E-score” value was 0.356.
ACTGTACT was tested, and the “PBM E-score” value was -0.111.
ACCCTGTA was tested, and the “PBM E-score” value was 0.0221.
With CGTTGGCC the “PBM E-score” value was -0.0804.
In the case of AAGGCTAG, the “PBM E-score” value was -0.0447.
With AATTGAGC the “PBM E-score” value was -0.107.
For CCAACTCC, the “PBM E-score” value was -0.0338.
For CGGGTTAG, the “PBM E-score” value was -0.173.
CCCACGAC was tested, and the “PBM E-score” value was 0.0916.
With TCGGGGAA the “PBM E-score” value was -0.206.
For AGTCCGCG, the “PBM E-score” value was -0.0164.
With AAGGTCAG the “PBM E-score” value was -0.192.
With GAGTGAGC the “PBM E-score” value was 0.033.
In the case of GGGAACAA, the “PBM E-score” value was -0.168.
CTATTGGC was tested, and the “PBM E-score” value was -0.155.
CGAGGGAA was tested, and the “PBM E-score” value was 0.0753.
For CGCATAGC, the “PBM E-score” value was -0.0973.
With ACTCGTCT the “PBM E-score” value was 0.0807.
AATTTCAC was tested, and the “PBM E-score” value was -0.0476.
ACATCTTA was tested, and the “PBM E-score” value was 0.0249.
With AAGCACTC the “PBM E-score” value was -0.175.
For GCGGAGCA, the “PBM E-score” value was -0.0601.
With ACGAAGAT the “PBM E-score” value was 0.284.
In the case of ACACTGTC, the “PBM E-score” value was -0.0797.
For ACAGCAGA, the “PBM E-score” value was -0.064.
For CCAAAGGG, the “PBM E-score” value was -0.158.
For CCTTGCGC, the “PBM E-score” value was -0.182.
With CCTACACG the “PBM E-score” value was 0.0417.
In the case of GGACATCC, the “PBM E-score” value was -0.153.
With ATATCGAT the “PBM E-score” value was 0.186.
In the case of AAAGCTTC, the “PBM E-score” value was -0.0418.
With CTATGCTA the “PBM E-score” value was -0.172.
With TTAATGAA the “PBM E-score” value was 0.0384.
In the case of GCTTCCCA, the “PBM E-score” value was -0.132.
CTATCAAC was tested, and the “PBM E-score” value was 0.0859.
In the case of GAGTCTAC, the “PBM E-score” value was 0.0518.
For CAGGGGGA, the “PBM E-score” value was -0.239.
ATGTTGAC was tested, and the “PBM E-score” value was 0.0691.
For GGCGTTTA, the “PBM E-score” value was -0.0253.
With GTTTACTA the “PBM E-score” value was 0.0858.
For CAAATTTG, the “PBM E-score” value was -0.106.
TACACCCA was tested, and the “PBM E-score” value was -0.015.
For GTTTCTAA, the “PBM E-score” value was -0.0553.
In the case of CAGTGCAA, the “PBM E-score” value was 0.0273.
With ACCAGTCA the “PBM E-score” value was -0.0892.
With ATAAATTA the “PBM E-score” value was 0.362.
GTTGACGA was tested, and the “PBM E-score” value was 0.21.
With CACCATAC the “PBM E-score” value was -0.111.
In the case of CCAATCCC, the “PBM E-score” value was -0.193.
In the case of CAACTCTC, the “PBM E-score” value was -0.0795.
For AAGTTAAC, the “PBM E-score” value was 0.0985.
With CGTATGTC the “PBM E-score” value was 0.253.
With ACTATCTC the “PBM E-score” value was 0.15.
In the case of ACAGTCGC, the “PBM E-score” value was -0.0877.
For ACGACACT, the “PBM E-score” value was 0.193.
In the case of AGCCCATC, the “PBM E-score” value was -0.135.
With CCGACCAA the “PBM E-score” value was 0.046.
With GGGCAGCA the “PBM E-score” value was -0.256.
AGGCTCGA was tested, and the “PBM E-score” value was -0.18.
For CCACTCTC, the “PBM E-score” value was -0.22.
TGGCCCAA was tested, and the “PBM E-score” value was -0.16.
CCACGGCG was tested, and the “PBM E-score” value was 0.142.
In the case of CTGTCGAC, the “PBM E-score” value was -0.137.
GTTAATAA was tested, and the “PBM E-score” value was 0.185.
GCAAGACA was tested, and the “PBM E-score” value was 0.0377.
With ATTCTAGA the “PBM E-score” value was -0.0566.
For ACGTCGTA, the “PBM E-score” value was 0.228.
With CCGGTGGA the “PBM E-score” value was -0.123.
ACGAGTGG was tested, and the “PBM E-score” value was 0.0971.
With AGTGATTG the “PBM E-score” value was 0.135.
AAACACTG was tested, and the “PBM E-score” value was -0.108.
With AACGGTCT the “PBM E-score” value was 0.0379.
With GGACGCCC the “PBM E-score” value was -0.0892.
In the case of CAGGTCAA, the “PBM E-score” value was -0.197.
TGGTGAAA was tested, and the “PBM E-score” value was -0.13.
CGATCATA was tested, and the “PBM E-score” value was 0.0936.
In the case of GAGGAAAA, the “PBM E-score” value was -0.0502.
With AAGGTAGG the “PBM E-score” value was 0.0623.
In the case of CCAGGTCG, the “PBM E-score” value was 0.072.
In the case of ACGCGCTA, the “PBM E-score” value was 0.0336.
ATCTGCGC was tested, and the “PBM E-score” value was -0.00428.
In the case of GCATGCAA, the “PBM E-score” value was -0.131.
TAAAACCA was tested, and the “PBM E-score” value was -0.0332.
In the case of CTTCAGTA, the “PBM E-score” value was -0.0213.
CTGCAGCA was tested, and the “PBM E-score” value was -0.115.
With CGCCGCCC the “PBM E-score” value was -0.239.
With CAGGCAAG the “PBM E-score” value was -0.0923.
GGGTCTAC was tested, and the “PBM E-score” value was -0.174.
For CTGTTAGA, the “PBM E-score” value was -0.00358.
In the case of GGATAGCA, the “PBM E-score” value was 0.118.
CTTCCTAC was tested, and the “PBM E-score” value was -0.154.
With GGTCAGGA the “PBM E-score” value was -0.113.
In the case of ATAGTGTG, the “PBM E-score” value was -0.0346.
With GAACCAGC the “PBM E-score” value was 0.00057.
For GCACCTGC, the “PBM E-score” value was -0.119.
For CTAACTTA, the “PBM E-score” value was 0.038.
With ACCTAAAT the “PBM E-score” value was 0.16.
CACGGATC was tested, and the “PBM E-score” value was 0.0691.
In the case of ACTAAGCG, the “PBM E-score” value was 0.0128.
For ATCGCAGA, the “PBM E-score” value was -1e-05.
GACTACAC was tested, and the “PBM E-score” value was -0.0203.
With AATGATAG the “PBM E-score” value was 0.229.
ATCGTTTG was tested, and the “PBM E-score” value was 0.298.
GCCAAAGC was tested, and the “PBM E-score” value was -0.222.
In the case of ACCCTAAC, the “PBM E-score” value was -0.0596.
GTGAGTGA was tested, and the “PBM E-score” value was 0.154.
With AAAGCCAT the “PBM E-score” value was -0.0213.
For CGCATTCC, the “PBM E-score” value was -0.271.
With ATCTCAGC the “PBM E-score” value was 0.109.
In the case of TACCGACA, the “PBM E-score” value was 0.0784.
AAATGGTC was tested, and the “PBM E-score” value was -0.0951.
CGTGCCCA was tested, and the “PBM E-score” value was -0.0605.
In the case of TACGGAAA, the “PBM E-score” value was 0.112.
With AACATCAG the “PBM E-score” value was 0.0871.
In the case of CACGGCAA, the “PBM E-score” value was 0.219.
In the case of CACAGGGC, the “PBM E-score” value was -0.0418.
With CAGACGGG the “PBM E-score” value was 0.0358.
AGGATTGC was tested, and the “PBM E-score” value was -0.175.
In the case of AAATCCCG, the “PBM E-score” value was -0.143.
TGATTGCA was tested, and the “PBM E-score” value was -0.0155.
For ACCCGCAC, the “PBM E-score” value was -0.0741.
In the case of CAGGGATC, the “PBM E-score” value was -0.0917.
GACAAATA was tested, and the “PBM E-score” value was 0.181.
With AGGACTCG the “PBM E-score” value was -0.0691.
In the case of CCCCACGC, the “PBM E-score” value was -0.227.
In the case of ATGAGCCA, the “PBM E-score” value was -0.207.
With CGCCGCTC the “PBM E-score” value was -0.0305.
For ATGATATC, the “PBM E-score” value was 0.362.
For AAGCCCGA, the “PBM E-score” value was -0.152.
In the case of CGTCTAGC, the “PBM E-score” value was 0.13.
With AATAAGAC the “PBM E-score” value was 0.0262.
In the case of CCCGCCTA, the “PBM E-score” value was -0.0972.
GGATTAAC was tested, and the “PBM E-score” value was 0.0444.
ACACAATC was tested, and the “PBM E-score” value was 0.0301.
ATCGACCA was tested, and the “PBM E-score” value was -0.158.
With CGAGAATC the “PBM E-score” value was 0.0268.
In the case of ACGTTGAA, the “PBM E-score” value was 0.198.
In the case of ATGCAACC, the “PBM E-score” value was 0.0863.
GCTACAAA was tested, and the “PBM E-score” value was 0.0774.
TGTCAGAA was tested, and the “PBM E-score” value was -0.0788.
In the case of AAGTTCGG, the “PBM E-score” value was -0.0363.
For AAGAGATG, the “PBM E-score” value was 0.00226.
In the case of CTGGACCA, the “PBM E-score” value was -0.204.
CACTATTC was tested, and the “PBM E-score” value was 0.184.
With AAGGATGA the “PBM E-score” value was 0.194.
In the case of CATGCACG, the “PBM E-score” value was 0.0738.
For ATCGGCTC, the “PBM E-score” value was -0.131.
ACTTCGAG was tested, and the “PBM E-score” value was -0.124.
GGTGCCAA was tested, and the “PBM E-score” value was 0.00901.
With ACACTTGG the “PBM E-score” value was -0.047.
For AGAATTCC, the “PBM E-score” value was 0.0725.
For GACCTTGA, the “PBM E-score” value was -0.0527.
AGACGTTA was tested, and the “PBM E-score” value was -0.00034.
In the case of AGGTAGGG, the “PBM E-score” value was -0.168.
For AAACATCA, the “PBM E-score” value was 0.194.
AGGAGCAA was tested, and the “PBM E-score” value was -0.0973.
For AGTATGCC, the “PBM E-score” value was -0.0156.
In the case of CATGGATC, the “PBM E-score” value was -0.111.
In the case of CTAGCTCA, the “PBM E-score” value was -0.198.
For GATAGTTA, the “PBM E-score” value was 0.223.
For AATTCGAA, the “PBM E-score” value was -0.0114.

From the supplement of paper PMC3334620
